# Measurements taken from the supplement of paper PMC3334620.
# Whole data set: some 33,000 sequences, median “E-score (-0.5 to 0.5)” near -0.015, cut for the highest 2% near 0.3. This is one part of the list.
# Biological target: T1, Abf1 (UniProt P14164)
# T1 sequence: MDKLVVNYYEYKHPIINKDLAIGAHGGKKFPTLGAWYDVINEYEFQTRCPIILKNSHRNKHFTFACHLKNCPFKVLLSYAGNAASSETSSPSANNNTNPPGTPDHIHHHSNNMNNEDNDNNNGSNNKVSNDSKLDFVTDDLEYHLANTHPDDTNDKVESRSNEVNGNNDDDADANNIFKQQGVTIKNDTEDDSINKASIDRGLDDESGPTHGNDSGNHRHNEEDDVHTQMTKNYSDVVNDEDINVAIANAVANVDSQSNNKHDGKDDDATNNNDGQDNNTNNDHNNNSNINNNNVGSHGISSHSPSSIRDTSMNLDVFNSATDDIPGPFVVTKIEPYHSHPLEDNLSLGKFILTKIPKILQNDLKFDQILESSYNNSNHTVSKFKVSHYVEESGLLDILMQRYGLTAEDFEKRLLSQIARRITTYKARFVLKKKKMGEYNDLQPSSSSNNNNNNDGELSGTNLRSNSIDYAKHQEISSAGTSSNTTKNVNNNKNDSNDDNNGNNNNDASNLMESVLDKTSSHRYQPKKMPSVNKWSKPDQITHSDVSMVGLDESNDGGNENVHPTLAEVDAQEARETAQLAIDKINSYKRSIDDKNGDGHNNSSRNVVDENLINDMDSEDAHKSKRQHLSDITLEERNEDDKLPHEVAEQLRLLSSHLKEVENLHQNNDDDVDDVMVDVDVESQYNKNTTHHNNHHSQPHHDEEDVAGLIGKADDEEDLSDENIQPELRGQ
# Test: PBM E-score (8-mer binding enrichment) (E-score (-0.5 to 0.5)); higher = stronger / more preferred TF binding
# Settings: protein concentration: 200 nM; construct: GST-full length
# How it was run: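 Using PURExpress in vitro transcription/translation, GST-tagged yeast transcription factors were made in full-length or DNA-binding-domain form. These were applied at about 100-200 nM to double-stranded universal all-10-mer Agilent arrays, and bound protein was detected with fluorescent anti-GST. Scans were normalised with masliner before the Universal PBM Analysis Suite assigned E-scores to ungapped eight-base words pooled with their reverse complements.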
row,Sequence,PBM E-score
1,ATGCCGTG,0.209
2,AAGCTAGC,0.0216
3,CCATAATC,-0.0528
4,AGGCTGAC,-0.203
5,GGAATAGA,0.0791
6,CAGAGAAG,-0.0774
7,CGACCGAA,0.102
8,AAGGGTAT,-0.16
9,GAAGTTGA,-0.0437
10,AGAGTGCG,-0.0544
11,AGATCTAA,-0.0645
12,GCCCGTAA,-0.012
13,CCACTAGC,-0.193
14,CCACAAGG,-0.192
15,GCGGATCC,-0.34
16,AATTCATG,0.0291
17,AGGTGAAA,0.0563
18,ACTCACAA,-0.0829
19,CAATGCCC,-0.0566
20,CACCGATC,0.0259
21,AGAGTGGA,-0.0978
22,GCGACGAC,0.098
23,GAACGCGC,0.0459
24,ACCACAAT,-0.149
25,GCCGTTCA,0.156

# Exported tab-delimited: part of the list above.
row	Sequence	PBM E-score
2	AAGCTAGC	0.0216
3	CCATAATC	-0.0528
4	AGGCTGAC	-0.203
5	GGAATAGA	0.0791

# (list continues)

row,Sequence,PBM E-score
1,GAGACCTA,-0.135
2,CCATAGAG,-0.148
3,ATGGGGAC,-0.0783
4,ACCTCTCA,-0.0244
5,CTACTAAC,0.0614
6,ATGCCGAC,0.107
7,GCCGCCGC,-0.336
8,ACTACCCG,0.0299
9,AAAGCAGC,0.0235
10,CTCATCGA,-0.0667
11,CAAAGACG,0.0622
12,AACGCCAC,-0.145
13,CATGATTA,0.227
14,CTACCTTC,0.0107
15,ACGAGTTC,0.206
16,CAAGACAG,-0.162
17,CAGCAATG,-0.203
18,AGACGGTG,0.0281
19,GGCCAACA,-0.215
20,CCCAGCGA,-0.0331
21,ACACAGAT,-0.0531
22,ACACATTA,-0.117
23,ACGCATAA,0.175
24,GGCCCTCA,-0.125
25,AGCCCTGG,-0.171

row,Sequence,PBM E-score
1,GCCACTAC,-0.112
2,GCAACGGC,0.186
3,CTTTCGAC,0.0853
4,ATACGGGG,0.172
5,GGCACGTA,-0.0676
6,AGTCGGAG,-0.311
7,AGCTGGCA,-0.0797
8,AGGGGGTA,-0.358
9,CCTTGCGA,-0.104
10,ATCAGAAC,-0.00643
11,AAACTGGC,-0.23
12,TAGCCAAA,0.123
13,ATATTGCA,0.0736
14,TGACCCAA,0.0427
15,CTCTAGTC,-0.285
16,ATTATACC,0.217
17,CAACCGTC,0.0659
18,ACTTTCAC,0.0339
19,CCTAGCGC,-0.132
20,AACACACT,0.0283
21,AGTGCATG,-0.0169
22,GCCTTCAA,-0.248
23,ATATCGCC,0.269
24,ACAAAGCT,-0.164
25,GTTTGATA,0.125

row,Sequence,PBM E-score
1,CGCAATTA,-0.149
2,AAAGTACG,0.153
3,GTCATACA,-0.0367
4,AATAGTAG,0.109
5,CCATTGAA,0.00146
6,CTATCAGC,0.135
7,GTCGGCTA,0.112
8,GGATCGTA,0.29
9,GAGGGATA,0.0156
10,CTAACCCC,-0.249
11,ACACTCCA,-0.0399
12,GGATCTAA,-0.161
13,ATTACGTG,0.176
14,CGCTTACG,-0.0746
15,AACTAGCG,0.108
16,AATCTGTG,-0.106
17,AGGCGTGG,-0.332
18,AACCAGTC,-0.131
19,CCAAGCAG,-0.198
20,CTCATGAC,0.245
21,AGACGGCG,0.306
22,TACGGGCA,0.0592
23,ACGCACAT,-0.00733
24,ATAGATAG,0.0667
25,CTCGCGAC,0.238

row,Sequence,PBM E-score
1,CCAAGACA,-0.0658
2,AGTCTTTA,-0.294
3,AGTATCAT,0.286
4,CTTGACTA,0.0483
5,AGCTGGAA,-0.193
6,ATTCCTCA,0.0866
7,ACACGTCA,0.151
8,CCGAAACA,0.0637
9,CTTGGCTA,0.0251
10,ACGTTGCA,0.195
11,GAAGACGA,0.207
12,ATTCGAAT,0.0643
13,ATGCCGAA,0.051
14,CCACCCTC,-0.0751
15,CCCAGGAA,-0.188
16,ACTATTTG,0.119
17,AGTGGACG,0.099
18,GACCCCGC,-0.114
19,AACCTGTA,-0.155
20,CGGAGGCA,-0.19
21,CGACAGAC,-0.156
22,GTAACTAC,0.117
23,AAATCTCT,-0.00019
24,GCGCCTTA,0.00196
25,AACCACAA,-0.061

row,Sequence,PBM E-score
1,CGAAGCCA,-0.102
2,AGGTACAA,0.0674
3,ATTCCGAC,-0.174
4,AATGACTG,-0.127
5,AACTGAGG,-0.0999
6,GGTGAACA,-0.0983
7,AGCAATTA,0.0411
8,CCTGGACG,0.183
9,AACTAGGT,0.0275
10,ACGTTCCA,0.0987
11,ACGCAATC,-0.303
12,TAGAGTGA,0.248
13,CATGTAAC,0.043
14,ACCTGCTC,-0.0149
15,CCCCACTC,-0.0593
16,AGCTGGCG,-0.276
17,ACCAGATA,0.0162
18,AGACTAAT,-0.0707
19,CACCAATA,0.0015
20,GCAATTCA,-0.0514
21,GAGCCGTA,0.347
22,CGCACGTC,-0.0391
23,AAGTCTAT,0.0605
24,CATTTGGG,-0.141
25,CAAAGGAA,0.0705

# Two entries from above, tab-delimited.
row	Sequence	PBM E-score
10	CTAACCCC	-0.249
11	ACACTCCA	-0.0399

# Additional results:

row,Sequence,PBM E-score
1,CTGGGGTC,-0.179
2,CGCTATTA,0.232
3,AGGTATCG,0.106
4,TATGCGAA,0.112
5,CGTTGTAG,0.102
6,AACGCTTA,-0.101
7,GACATCTC,0.137
8,AAGAGGTA,-0.0778
9,ACCGTCAC,0.158
10,CTTAGGCA,-0.0659
11,ATTTACCG,0.112
12,GTCCGGTA,0.00344
13,CGTATTTC,0.316
14,GGCTCTTA,-0.0949
15,CATATGCG,0.00167
16,AACCTCAA,-0.0547
17,CGAGGACG,-0.0121
18,GTACCAAA,0.259
19,GGGTTGTA,-0.00826
20,ATGGATCC,0.0135
21,GATTCGAC,-0.0487
22,ATGGGGTA,-0.00916

# Pulled one by one from the entries so far:
row,Sequence,PBM E-score
3,AGGTATCG,0.106
19,CACCAATA,0.0015
3,AGTATCAT,0.286
2,AAAGTACG,0.153
6,AACGCTTA,-0.101
13,ATTACGTG,0.176
